{"sequences": {"note": "The chains behind the UniProt entries cited, without tags or fusion partners. Where a name states a change or a piece, a line headed by the entry shows the natural chain unless it says otherwise.", "UniProt P23025": "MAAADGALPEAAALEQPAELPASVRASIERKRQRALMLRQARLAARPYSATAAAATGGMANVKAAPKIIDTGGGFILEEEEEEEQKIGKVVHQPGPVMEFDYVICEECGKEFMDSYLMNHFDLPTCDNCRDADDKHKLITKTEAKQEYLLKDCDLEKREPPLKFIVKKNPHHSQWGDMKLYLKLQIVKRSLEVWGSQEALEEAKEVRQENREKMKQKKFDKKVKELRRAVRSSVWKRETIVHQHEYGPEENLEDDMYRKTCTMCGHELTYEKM"}, "source": "patent US20100331233A1", "about": "“CRYSTAL OF XPA AND ERCC1 COMPLEX AND USES THEREOF” (priority 2007, published 2010)", "key": {"[1]": {"biological_target": "T1, ERCC192-214 (central domain of ERCC1, N-terminal His6 tag)", "T1 sequence": "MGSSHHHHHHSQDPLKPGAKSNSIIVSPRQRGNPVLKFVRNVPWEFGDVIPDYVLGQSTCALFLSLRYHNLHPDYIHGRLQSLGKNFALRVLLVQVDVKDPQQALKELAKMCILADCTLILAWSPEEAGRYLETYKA", "assay": "gel filtration (S-100) and SDS-PAGE of the peak fractions"}, "[2]": {"biological_target": "T1, ERCC192-214 (central domain of ERCC1, N-terminal His6 tag)", "assay": "gel filtration (S100) of the complex; ERCC1 central domain construct (92-214 or 96-214) not specified"}}, "note": "These are yes or no findings as the source states them, for the method shown. Some entries that bind do so weakly or less than the wild type. Sequences can lack the tags named with a protein."}
{"substance": "XPA59-219 (from UniProt P23025 59-219)", "values": [{"measurement": "binding", "setting": "[1]", "result": "binds"}, {"measurement": "binding", "setting": "[2]", "result": "binds"}]}
